According to patent publication US20250352579A1 (HEBEI SENLANG BIOTECHNOLOGY, published 2025):
These are yes or no findings as the source states them, for the method shown. Some results given as binding are weak or reduced against the parent protein; the word gives no strength.

T1: CD7-His protein (UniProt P09564 26-180, limits assumed)
T1 construct: extracellular domain; also called recombinant CD7-His protein; CD7 antigen; not shown: His tag
T1 sequence (looked up): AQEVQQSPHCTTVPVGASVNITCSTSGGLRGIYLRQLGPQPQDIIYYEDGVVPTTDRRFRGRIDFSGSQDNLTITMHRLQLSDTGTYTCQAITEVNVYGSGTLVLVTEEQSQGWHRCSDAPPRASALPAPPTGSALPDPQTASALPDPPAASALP


Columns and labels:
CD7-His protein [1] = target: CD7-His protein (UniProt P09564); assay: SPR, CD7-His immobilised on CM5 chip
CD7-His protein [2] = target: T1, CD7-His protein; assay: SPR, CD7-His immobilised on CM5 chip

binding (CD7-His protein [1])	binding (CD7-His protein [2])	Binder
binds		dVHH-D (other, also called VHH-10+VHH-12; double VHH antibody dVHH-D; not shown: Linker) chain (part 1 of 2): QVQLQESGGGLVQTGGSLRLSCEASERTFSSNAVGWFRQAPGKEREFVAAITWSVGTTYYADSVKGRFTISRDNAKNTVYLQMNSLKPEDTAVYYCAASGARHYSGSYLDFGSWGQGTQVTVSS chain (part 2 of 2): QVQLQESGGGLVQPGGSLRLSCAASGSTLDYYAIGWFRQAPGKEREGISCISNSGGMTNYADSVKGRFTISRDNAKNTVYLQMNSLKPEDTAVYYCAAGPAWSYCSGYVPAGLDKFGSWGQGTQVTVSS
	binds	VHH10 (VHH, Variable region only; also called anti-CD7 nanobody VHH10) VHH: QVQLQESGGGLVQTGGSLRLSCEASERTFSSNAVGWFRQAPGKEREFVAAITWSVGTTYYADSVKGRFTISRDNAKNTVYLQMNSLKPEDTAVYYCAASGARHYSGSYLDFGSWGQGTQVTVSS
binds		VHH12 (VHH, Variable region only; also called anti-CD7 nanobody VHH12) VHH: QVQLQESGGGLVQPGGSLRLSCAASGSTLDYYAIGWFRQAPGKEREGISCISNSGGMTNYADSVKGRFTISRDNAKNTVYLQMNSLKPEDTAVYYCAAGPAWSYCSGYVPAGLDKFGSWGQGTQVTVSS
	binds	dVHH-E (other, also called VHH-10+VHH-10; double VHH antibody dVHH-E; not shown: Linker) chain (part 1 of 2): QVQLQESGGGLVQTGGSLRLSCEASERTFSSNAVGWFRQAPGKEREFVAAITWSVGTTYYADSVKGRFTISRDNAKNTVYLQMNSLKPEDTAVYYCAASGARHYSGSYLDFGSWGQGTQVTVSS chain (part 2 of 2): QVQLQESGGGLVQTGGSLRLSCEASERTFSSNAVGWFRQAPGKEREFVAAITWSVGTTYYADSVKGRFTISRDNAKNTVYLQMNSLKPEDTAVYYCAASGARHYSGSYLDFGSWGQGTQVTVSS
